Drawing on paper PMC12581509, this text covers binding for 1 molecule.

These are yes or no findings as the source states them, for the method shown. Binding seen in cells or lysates may run through a third protein. Binding can be weak; no strength is given. Tags and fused reporters may be left off the sequences shown.

Assay [1] addresses nLUC-AcZLP1 (Actinidia chinensis ZAR1-like protein 1) (Actinidia chinensis cv. Hongyang). In words: split reporter; luciferase complementation assay (LCA): Agrobacterium strains carrying nLuc and cLuc constructs and P19 mixed 1:1:1, co-infiltrated into N. benthamiana leaves; substrate injected after two days, signal captured with a CCD camera; empty vectors as negative controls.

Assay [2] concerns the target nLUC-AeZLP1 (Actinidia eriantha ZAR1-like protein 1) (Actinidia eriantha cv. White). The assay is described as above.

B1: cLUC-HopH1 (HopH1 effector of Pseudomonas syringae pv. actinidiae M228) (protein, UniProt Q88A09 1-218)
chain: MITPSRYPGIYIAPLSNEPTAAHTFKEQAEEALDHISAAPSGDKLLRKISTLASQKDRKVTLKEIEINNQCYTEAVLSRRQLEKYEPENFNENRHIASQLSRKGTFTKGEGSNAIIGWSPDKASIRLNQNGSPLHLGMDNDDKITTLAHELVHARHVLGGSSLADGGDRYNPRTGSGKEELRAVGLDKYRYSLTKKPSENSIRAEHGLPLRMKYRAHQ
As to B1, the binding entry in assay [1] and in assay [2] was “binds” throughout.
